{
  "sequences": {"note": "Chains of the proteins cited; added tags and fusions are not shown.", "UniProt Q9CVD2": "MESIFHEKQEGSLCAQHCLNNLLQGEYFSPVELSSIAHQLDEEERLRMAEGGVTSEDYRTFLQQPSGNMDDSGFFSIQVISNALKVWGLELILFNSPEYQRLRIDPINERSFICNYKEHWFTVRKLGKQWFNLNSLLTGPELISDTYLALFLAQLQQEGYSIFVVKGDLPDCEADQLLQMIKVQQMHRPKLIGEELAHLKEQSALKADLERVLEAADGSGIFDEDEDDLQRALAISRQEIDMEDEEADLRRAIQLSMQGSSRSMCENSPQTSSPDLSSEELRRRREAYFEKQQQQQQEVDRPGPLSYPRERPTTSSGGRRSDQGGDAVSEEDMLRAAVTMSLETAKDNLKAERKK"},
  "source": "paper PMC7948449",
  "biological_target": "DNAJA1 (endogenous, mouse P03 cells) (mouse (endogenous in P03)) (UniProt P63037)",
  "assay": "co-IP; P03 cells treated with different concentrations of GY1-22 (or DMSO) for 24 h; lysate incubated overnight at 4 °C with anti-DNAJA1 antibody on protein A/G agarose; Western blot for mutp53, ataxin-3 and DNAJA1",
  "note": "These are yes or no findings as the source states them, for the method shown. In cells and extracts the contact can be indirect. Some entries that bind do so weakly or less than the wild type.",
  "data": [
    {"substance": "ataxin-3 (endogenous, mouse P03 cells) (from UniProt Q9CVD2 1-355)", "values": [
      {"measurement": "binding", "value": "binds"}
    ]}
  ]
}
